Experimental data: paper doi:10.1101/2021.09.29.462476
These are yes or no findings as the source states them, for the method shown. In cells and extracts the contact can be indirect. Some entries that bind do so weakly or less than the wild type.

Chains of the proteins cited; added tags and fusions are not shown.
UniProt Q5T5D7: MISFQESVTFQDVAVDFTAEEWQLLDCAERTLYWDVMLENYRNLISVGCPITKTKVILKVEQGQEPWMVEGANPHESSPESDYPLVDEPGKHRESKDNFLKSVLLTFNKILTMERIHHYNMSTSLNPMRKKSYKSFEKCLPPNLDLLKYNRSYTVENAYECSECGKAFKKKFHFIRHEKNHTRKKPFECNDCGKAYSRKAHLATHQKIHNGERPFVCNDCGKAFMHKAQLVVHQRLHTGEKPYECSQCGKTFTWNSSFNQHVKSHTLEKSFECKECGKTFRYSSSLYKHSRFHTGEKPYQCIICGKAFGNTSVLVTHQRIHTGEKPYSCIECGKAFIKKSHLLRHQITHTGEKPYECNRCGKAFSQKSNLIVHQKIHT
UniProt P11940: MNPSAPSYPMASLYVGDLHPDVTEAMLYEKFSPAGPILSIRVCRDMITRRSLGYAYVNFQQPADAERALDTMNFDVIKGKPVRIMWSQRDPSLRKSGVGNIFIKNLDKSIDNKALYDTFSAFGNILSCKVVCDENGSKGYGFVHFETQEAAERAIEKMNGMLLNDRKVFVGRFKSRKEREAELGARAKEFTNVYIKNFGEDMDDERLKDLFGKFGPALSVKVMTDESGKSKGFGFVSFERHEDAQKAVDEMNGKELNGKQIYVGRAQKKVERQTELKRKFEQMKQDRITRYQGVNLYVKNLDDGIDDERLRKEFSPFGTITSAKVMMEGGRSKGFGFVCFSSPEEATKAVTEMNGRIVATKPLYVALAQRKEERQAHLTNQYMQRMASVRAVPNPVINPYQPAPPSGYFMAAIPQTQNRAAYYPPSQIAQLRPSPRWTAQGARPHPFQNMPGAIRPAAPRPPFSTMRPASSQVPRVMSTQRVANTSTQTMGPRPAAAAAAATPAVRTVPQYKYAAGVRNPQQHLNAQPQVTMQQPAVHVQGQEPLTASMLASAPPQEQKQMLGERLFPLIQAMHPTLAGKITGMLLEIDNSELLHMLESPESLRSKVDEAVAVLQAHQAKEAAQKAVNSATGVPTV

Columns and labels:
[1] = biological target: T1, Nxf1 (human (endogenous in HEK293)) (UniProt Q9UBU9); assay: co-IP
T1 sequence: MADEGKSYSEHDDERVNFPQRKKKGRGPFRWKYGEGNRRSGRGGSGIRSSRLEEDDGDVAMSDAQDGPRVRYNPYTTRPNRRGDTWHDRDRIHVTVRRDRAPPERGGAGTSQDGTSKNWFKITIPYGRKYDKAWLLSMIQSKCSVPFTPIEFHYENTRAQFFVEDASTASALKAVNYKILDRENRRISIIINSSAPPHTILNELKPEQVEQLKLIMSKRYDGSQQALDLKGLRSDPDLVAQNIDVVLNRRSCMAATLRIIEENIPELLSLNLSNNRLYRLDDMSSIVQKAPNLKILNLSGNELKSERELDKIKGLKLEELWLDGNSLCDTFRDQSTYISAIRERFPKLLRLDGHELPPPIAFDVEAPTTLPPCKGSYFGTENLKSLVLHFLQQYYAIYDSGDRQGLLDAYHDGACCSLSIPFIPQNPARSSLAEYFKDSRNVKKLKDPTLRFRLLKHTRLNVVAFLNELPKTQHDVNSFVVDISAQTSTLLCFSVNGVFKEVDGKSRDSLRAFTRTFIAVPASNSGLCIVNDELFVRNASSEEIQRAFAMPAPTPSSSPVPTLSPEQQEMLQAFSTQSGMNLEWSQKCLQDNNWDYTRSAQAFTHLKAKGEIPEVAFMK

GFP-Znf684 (human) = GFP-Znf684 (human) (UniProt Q5T5D7); assay: co-IP

| binding [1] | binding (GFP-Znf684 (human)) | Substance |
| --- | --- | --- |
| binds | – | GFP-Znf684 (from UniProt Q5T5D7 1-378) |
| – | binds | PABPC1 (from UniProt P11940 1-636) |
